This note sets out measurements from publication PMC2652392, “The Structural Basis of Gas-Responsive Transcription by the Human Nuclear Hormone Receptor REV-ERBβ” (PLoS Biology, 2009).

For the assay, the target named is T1, SMRT interaction domain I (IDI) peptide.
T1 sequence (peptide, fluorescein on the N-terminus): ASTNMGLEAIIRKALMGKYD
In words: fluorescence polarisation; unpublished data; 110 nM N-terminally fluorescein-labelled SMRT peptide with a dilution series of LBD; 100 mM Tris pH 8.2, 150 mM NaCl; absence and presence of heme and gas; both purified.

Results are given in words; binding and its absence hold for the method and conditions named. Some binding calls cover weakened binding; strength is not graded here.

B1: REV-ERBα ligand-binding domain (residues 274–614 with an internal deletion of residues 324–422) (domain or fragment, UniProt P20393)
chain: TPPRSPSPEPTVEDVISQVARAHREIFTYAHDKLGSSPGNFNANHASGSPYPHGRSGRTVQEIWEDFSMSFTPAVREVVEFAKHIPGFRDLSQHDQVTLLKAGTFEVLMVRFASLFNVKDQTVMFLSRTTYSLQELGAMGMGDLLSAMFDFSEKLNSLALTEEELGLFTAVVLVSADRSGMENSASVEQLQETLLRALRALVLKNRPLETSRFTKLLLKLPDLRTLNNMHSEKLLSFRVDAQ
As to B1, the binding entry is on record as “binds”.
